For at least one compound, name, drawing or mass did not settle the structure.
Key:
Format in all cases: cell-based, humaines
[1] = tested on: U-87MG; test: MTT colorimetric cytotoxicity test, U-87MG; settings: 72 h incubation
[2] = tested on: HCT-15; test: MTT colorimetric cytotoxicity test, HCT-15; settings: HCT-15, 72 h incubation
[3] = tested on: MCF7; test: MTT colorimetric cytotoxicity test, MCF7; settings: MCF7, 72 h incubation
[4] = tested on: PC-3; test: MTT colorimetric cytotoxicity test, PC-3; settings: PC-3, 72 h incubation
Text: (§1) L'influence des composés de formules I et la sur les cellules néoplasiques a été évaluée à l'aide du test colorimétrique MTT. Le principe du test MTT est basé sur la réduction mitochondriale par les cellules vivantes métaboliquement actives du produit MTT (3-(4,5-diméthylthiazol-2-yl)-2,5 diphényltétrazolium bromide) de couleur jaune en un produit de couleur bleue, le formazan. La quantité de formazan ainsi obtenue est directement proportionnelle à la quantité de cellules vivantes présentes dans le (ou les) puit(s) de culture. Cette quantité de formazan est mesurée par spectrophotométrie.
(§2) Les lignées cellulaires sont maintenues en culture monocouche à 37°C dans des boîtes de culture à bouchon fermé contenant du milieu de base MEM 25 MM HEPES (Minimum Essential Medium). Ce milieu, adapté à la croissance d'une gamme de cellules variées diploïdes ou primaires de mammifères, est ensuite additionné : • d'une quantité de 5% de SVF (Sérum de Veau Foetal) décomplémenté à 56°C pendant 1 heure, • de 0,6 mg/ml de L-glutamine, • de 200 IU/ml de pénicilline, • de […] de streptomycine, • de 0,1 mg/ml de gentamicine.
(§3) Les 12 lignées cellulaires cancéreuses humaines utilisées ont été obtenues auprès de l'American Type Culture Collection (ATCC, Rockville, MD, USA). […]
(§4) Au plan expérimental : 100 µl d'une suspension cellulaire contenant 20 000 à 50 000 (selon le type cellulaire utilisé) cellules/ml de milieu de culture sont ensemencés en plaques multi-puits de 96 puits à fond plat et sont mis à incuber à 37°C, sous atmosphère comprenant 5% de CO2 et 70% d'humidité. […] L'intensité de la coloration bleue résultant donc de la transformation du produit MTT jaune en formazan bleu par les cellules encore vivantes au terme de l'expérience est quantifiée par spectrophotométrie à l'aide d'un appareil de type DYNATECH IMMUNOASSAY SYSTEM aux longueurs d'onde de 570 nm et 630 nm correspondant respectivement aux longueurs d'ondes d'absorbance maximale du formazan et au bruit de fond. […]

[5] = tested on: T-47D; test: MTT colorimetric cytotoxicity test, T-47D; settings: 72 h incubation
[6] = tested on: A549; test: MTT colorimetric cytotoxicity test, A549; settings: A549, 72 h incubation
[7] = tested on: A-427; test: MTT colorimetric cytotoxicity test, A-427; settings: A-427, 72 h incubation
[8] = tested on: LoVo; test: MTT colorimetric cytotoxicity test, LoVo; settings: 72 h incubation
Text: as §1, §2, §3, §4

[9] = tested on: J82; test: MTT colorimetric cytotoxicity test, J82; settings: J82, 72 h incubation
Text: as §1, §2, §3

[10] = tested on: SW1088; test: MTT colorimetric cytotoxicity test, SW1088; settings: SW1088, 72 h incubation
Text: as §1, §2, §3

[11] = tested on: T24; test: MTT colorimetric cytotoxicity test, T24; settings: T24, 72 h incubation
Text: as §1, §2, §3

[12] = tested on: U-373MG; test: MTT colorimetric cytotoxicity test, U-373MG; settings: 72 h incubation
Text: as §1, §2, §3

Compound | Concentrations inhibitrices (M) encadrant la valeur de la concentration inhibitrice 50 % [1] | Concentrations inhibitrices (M) encadrant la valeur de la concentration inhibitrice 50 % [2] | Concentrations inhibitrices (M) encadrant la valeur de la concentration inhibitrice 50 % [3] | Concentrations inhibitrices (M) encadrant la valeur de la concentration inhibitrice 50 % [4] | Concentrations inhibitrices (M) encadrant la valeur de la concentration inhibitrice 50 % [5] | Concentrations inhibitrices (M) encadrant la valeur de la concentration inhibitrice 50 % [6] | Concentrations inhibitrices (M) encadrant la valeur de la concentration inhibitrice 50 % [7] | Concentrations inhibitrices (M) encadrant la valeur de la concentration inhibitrice 50 % [8] | Concentrations inhibitrices (M) encadrant la valeur de la concentration inhibitrice 50 % [9] | Concentrations inhibitrices (M) encadrant la valeur de la concentration inhibitrice 50 % [10] | Concentrations inhibitrices (M) encadrant la valeur de la concentration inhibitrice 50 % [11] | Concentrations inhibitrices (M) encadrant la valeur de la concentration inhibitrice 50 % [12]
Cc1ccc2nc3c(c(C)c2c1)C(=O)c1ncccc1C3=O [CRL8324, 9,11-diméthyl-1,6-diaza-naphtacène-5,12-dione] | [10^-5,10^-6] | [10^-5,10^-6] | [10^-5,10^-6] | [10^-5,10^-6] | [10^-5,10^-6] | [10^-5,10^-6] | [10^-5,10^-6] | [10^-5,10^-6] | – | – | – | –
O=C1c2nccc(Br)c2-c2nc3ccccc3c3ccnc1c23 [CRL 8248, 5-bromo-9H-quino[4,3,2-de] [1,10]phénantrolin-9-one] | [10^-6,10^-7] | [10^-7,10^-8] | [10^-7,10^-8] | [10^-7,10^-8] | [10^-7,10^-8] | [10^-6,10^-7] | [10^-7,10^-8] | [10^-6,10^-7] | [10^-6,10^-7] | [10^-6,10^-7] | [10^-7,10^-8] | [10^-6,10^-7]
Nc1ccnc2c1-c1nc3ccccc3c3ccnc(c13)C2=O [CRL 8347, 5-amino-9H-quino[4,3,2-de][1,10]phénanthtolin-9-one] | [10^-7,10^-8] | [10^-7,10^-8] | [10^-7,10^-8] | [10^-6,10^-7] | [10^-7,10^-8] | [10^-8,10^-9] | [10^-8,10^-9] | [10^-5,10^-6] | [10^-7,10^-8] | [10^-7,10^-8] | [10^-8,10^-9] | [10^-8,10^-9]
